Measurements reported in PubChem BioAssay AID1259327 (Drosophila RNAi Screening Center, 2017).
Here is a random part of about 3,100 reagents tested. 378 of them (12%) count as active. 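Hits include both directions; z-score sign shows ATP rise or fall; raw luminescence values are not plate-normalised.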 Names joined by + are all predicted targets of the reagent. The record does not give: the amount of reagent.

Screen: 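Baseline ATP after transmembrane-protein gene knock-down with water vehicle only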
Cells: Drosophila S2R+ cells
Reagents: long dsRNA against Drosophila genes
Time to read-out: 5 days (water added on day 4, read one day later)
Conditions: water added as vehicle, no metal, one day before read-out
Measurement: 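Total ATP measured by luciferase light, scaled to plate mean, duplicates averaged, then z-scored across plates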
Reading the numbers: ATP z-score: higher = more total ATP than typical wells; ATP luminescence: higher = more total ATP
Active means: 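a hit is any knock-down whose absolute ATP z-score is greater than 1.5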
Meaning of the calls: active = hit: ATP up or down; inactive = no clear ATP change

gene	DRSC id	ATP z-score, duplicate mean	ATP luminescence, replicate 1 (RLU)	ATP luminescence, replicate 2 (RLU)	call
Zip71B	DRSC09686	-0.0612	8.98e5	8.78e5	inactive
Zip71B	DRSC29491	-0.00402	8.46e5	8.01e5	inactive
CG8112	DRSC16377	0.128	2.98e5	7.93e5	inactive
CG8112	DRSC39422	-0.055	4.45e5	4.53e5	inactive
CngA	DRSC07362	0.222	6.03e5	6.76e5	inactive
Vha16-5	DRSC02986	0.485	7.60e5	7.95e5	inactive
CG17646	DRSC00507	1.05	5.55e5	5.50e5	inactive
CG17646	DRSC39859	-1.82	4.01e5	4.60e5	active
CG6660	DRSC16087	0.755	8.04e5	7.63e5	inactive
Syx16	DRSC20507	0.143	7.23e5	7.18e5	inactive
Syx16	DRSC27163	-1.29	9.20e5	1.05e6	inactive
CG31221	DRSC16217	0.234	3.16e5	7.72e5	inactive
CG31221	DRSC23748	0.638	9.35e5	8.67e5	inactive
Tollo	DRSC11305	-0.414	9.14e5	7.73e5	inactive
Tollo	DRSC39718	-0.187	4.83e5	4.21e5	inactive
CG32320	DRSC21514	-2	4.12e5	4.09e5	active
CG32320	DRSC28106	-0.384	9.54e5	8.70e5	inactive
Ir76a	DRSC10987	-4	3.06e5	3.02e5	active
robo1	DRSC04712	-0.267	7.07e5	6.89e5	inactive
CG7627	DRSC03065	1.82	5.28e5	6.90e5	active
Mayo	DRSC14300	-1.25	6.11e5	7.19e5	inactive
CG10761	DRSC17753	1.55	6.54e5	6.68e5	active
CG10761	DRSC27665	1.1	1.04e6	9.60e5	inactive
CG13325	DRSC06362	0.471	7.32e5	8.32e5	inactive
CG13325	DRSC24773	-0.701	7.93e5	1.01e6	inactive
mthl8	DRSC08211	-0.53	7.23e5	6.24e5	inactive
mthl8	DRSC08311	0.437	5.32e5	7.87e5	inactive
Nup133	DRSC16150	-0.504	6.97e5	6.12e5	inactive
CG14204	DRSC19559	0.953	8.15e5	8.79e5	inactive
CG14204	DRSC29941	0.672	6.08e5	6.66e5	inactive
Ih	DRSC07445	0.338	8.03e5	7.30e5	inactive
Ih	DRSC24809	-1.06	6.80e5	7.59e5	inactive
CG4822	DRSC00669	0.416	4.86e5	5.31e5	inactive
CG7497	DRSC28188	1.56	9.86e5	1.18e6	active
CG7497	DRSC37068	1.85	7.69e5	7.03e5	active
Yif1	DRSC15817	-2.11	5.16e5	6.49e5	active
wtrw	DRSC14241	0.488	8.12e5	7.02e5	inactive
wtrw	DRSC29977	-1.31	4.98e5	4.39e5	inactive
ZnT35C	DRSC01959	-1.39	5.40e5	6.17e5	inactive
ZnT35C	DRSC39419	-1.32	4.34e5	3.01e5	inactive
Ir7f	DRSC18012	0.434	8.92e5	6.81e5	inactive
Cad99C	DRSC15050	1.3	5.26e5	7.11e5	inactive
Cad99C	DRSC16317	0.283	7.20e5	7.49e5	inactive
CG6230	DRSC01989	0.183	4.20e5	5.69e5	inactive
CG32079	DRSC22636	1.02	6.99e5	6.32e5	inactive
CG32079	DRSC39426	-0.819	3.86e5	4.10e5	inactive
Osi19	DRSC12569	-0.293	8.76e5	8.40e5	inactive
CG33124	DRSC00298	0.727	7.88e5	7.73e5	inactive
CG31103	DRSC22324	0.241	8.46e5	9.15e5	inactive
CG5687	DRSC08568	-0.151	6.70e5	7.61e5	inactive
CG5687	DRSC39621	-1.78	3.32e5	3.58e5	active
CG2698	DRSC15447	-1.03	2.53e5	6.50e5	inactive
CG2698	DRSC39597	1.22	5.38e5	5.59e5	inactive
anchor	DRSC10861	1.3	1.01e6	7.27e5	inactive
ClC-b	DRSC07220	2.41	8.89e5	7.87e5	active
Cralbp + PGRP-LD + Pmi	DRSC09743	0.0545	9.59e5	9.98e5	inactive
CG9483	DRSC03226	2.1	6.15e5	6.38e5	active
CG9483	DRSC29929	-0.318	6.38e5	4.65e5	inactive
Ekar	DRSC17161	-1.05	5.51e5	7.04e5	inactive
Ekar	DRSC24931	1.13	1.13e6	8.50e5	inactive
Tsp42Ea	DRSC04982	-0.92	4.89e5	5.84e5	inactive
Tsp42Ea	DRSC06792	0.64	7.09e5	6.46e5	inactive
Ptp99A	DRSC14320	-0.29	6.51e5	7.06e5	inactive
Ptp99A	DRSC16803	-0.272	6.85e5	7.42e5	inactive
Ptp99A	DRSC22477	-0.466	7.16e5	8.69e5	inactive
Ptp99A	DRSC23033	-0.533	4.99e5	5.71e5	inactive
Ptp99A	DRSC37009	-1.36	4.32e5	4.98e5	inactive
Gr28a	DRSC02290	0.428	7.92e5	7.51e5	inactive
ATP8B	DRSC14961	-0.486	2.52e5	7.74e5	inactive
CG32645	DRSC19683	0.341	6.28e5	6.41e5	inactive
CG32645	DRSC19889	1.74	8.49e5	7.36e5	active
Sr-CI	DRSC00790	0.119	7.65e5	7.13e5	inactive
Sr-CI	DRSC23942	0.101	8.06e5	9.20e5	inactive
Rh7	DRSC10529	-0.413	6.33e5	7.42e5	inactive
Rh7	DRSC28331	1.86	1.12e6	9.77e5	active
crb	DRSC16927	0.578	7.75e5	7.56e5	inactive
crb	DRSC39156	0.49	5.06e5	7.39e5	inactive
rdo	DRSC02452	0.77	4.88e5	5.81e5	inactive
rdo	DRSC25572	0.582	9.06e5	9.40e5	inactive
CG1275	DRSC08294	-0.415	6.76e5	6.97e5	inactive
tipE	DRSC08738	-1.18	5.51e5	6.60e5	inactive
tipE	DRSC29985	-0.744	5.41e5	4.92e5	inactive
stas	DRSC20104	-1.06	5.82e5	6.11e5	inactive
Trpgamma	DRSC03626	0.324	7.48e5	7.73e5	inactive
Trpgamma	DRSC39800	-1.29	3.76e5	4.02e5	inactive
sns	DRSC07687	-1.05	5.72e5	4.76e5	inactive
sns	DRSC07691	0.376	6.77e5	8.97e5	inactive

Targets above whose gene name begins with I or i (4):
gene	DRSC id	ATP z-score, duplicate mean	ATP luminescence, replicate 1 (RLU)	ATP luminescence, replicate 2 (RLU)	call
Ir76a	DRSC10987	-4	3.06e5	3.02e5	active
Ih	DRSC07445	0.338	8.03e5	7.30e5	inactive
Ih	DRSC24809	-1.06	6.80e5	7.59e5	inactive
Ir7f	DRSC18012	0.434	8.92e5	6.81e5	inactive
